Test: general procedure: solution-phase peptide synthesis; PyBOP/DIPEA; PNP active esters (PNPO-Lys) with TEA
Conditions: late stage modification step, sodium salt (final), TFA salt (amine intermediates)

| Substance | step yield (two steps) [% for two steps] | step yield [%] |
| --- | --- | --- |
| BHALys[Lys]2[GlyLys]4[Lys]8[α,α-NH2.TFA]4[α,ε-NH2.TFA]4[ε,α-COC5H12]4[ε,ε-COC5H12]4 | 80 | – |
| BHALys[GlyLys]2[Lys]4[α,α-COCH2O-3,6-Naph(SO3Na)2]2[α,ε-COCH2O-3,6-Naph(SO3Na)2]2[ε,α-COC5H12]2[ε,ε-COC5H12]2 | – | 34 |
| BHALys[GlyLys]2[Lys]4[COCH2O-3,6-Naph(SO3Na)2]6 [ε,ε-CBz]2 | – | 42 |
| BHALys[Lys]2[GlyLys]4[Lys]8[α,α-COCH2O-3,6-Naph(SO3Na)2]4[α,ε-COCH2O-3,6-Naph(SO3Na)2]4[ε,α-COC5H12]4[ε,ε-COC5H12]4 | – | 18 |
| BHALys[GlyLys]2[Lys]4[α,α-NH2.TFA]2[α,ε-NH2.TFA]2[ε,α-COC5H12]2[ε,ε-COC5H12]2 | 47 | – |
| BHALys[Lys]2[α,ε-Lys][COCH2O-3,6-Naph(SO3Na)2]2[Lys]3 [Boc]6 | – | 53 |
| BHALys[GlyLys]2[Lys]4[NH2.TFA]6[ε,ε-CBz]2 | – | 92 |
| BHALys[GlyLys]2[Lys]4[α,α-Boc]2[ε,α-COCH2O-3,6-Naph(SO3Na)2]2[ε,ε-COCH2O-3,6-Naph(SO3Na)2]2 | – | 27 |
| BHALys[Lys]2[GlyLys]4[Lys]8[α,α-Boc]4[α,ε-Boc]4[ε,α-COCH2O-3,6-Naph(SO3Na)2]4 [ε,ε-COCH2O-3,6-Naph(SO3Na)2]4 | – | 38 |
| BHALys[Lys]2[α,ε-Lys][CBz]2[Lys]3 [NH2.TFA]6 | – | 99 |
| BHALys[Lys]2[α,ε-Lys][CBz]2[Lys]3 [COCH2O-3,6-Naph(SO3Na)2]6 | – | 7 |

From patent publication US8258259B2 (Starpharma Pty Limited, priority 2005, dated 2012)
